The nature of this assay: qHTS Assay for Lipid Storage Modulators in Drosophila S3 Cells.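 On cell number change: cells counted by Cell Tracker Red CMTPX staining in the red channel.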 Particulars: BODIPY lipid droplet fluorescence, 18-24 h; for cell number change: measured here: cell count max response, cells fed with added oleic acid. The method, boiled down:
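Drosophila S3 cells got compounds at several concentrations plus oleic acid (400 uM solution). Laser-scanning cytometry with 488 nm excitation read lipid droplets at 500-530 nm and cells at 575-640 nm. Percent activity was relative to 20 uM Triacsin C.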
In general terms: Quantitative high-throughput screening tests each substance at several concentrations.

Where [1] appears, read: measured here: lipid fluorescence (Fed channel) AC50, cells fed with added oleic acid.

Some of the results follow. Shown are side measurements of this screen, not its main read-out; they come without a call. The list favours compounds with an active or inconclusive main result. The note in brackets gives the kind of curve behind each potency; many fits are weak.

In general, AC50 refers to the concentration at which the activity in the assay is half-maximal. For the molecule `CC(c1ccccc1)N1C(=O)c2ccc(C(=O)Nc3ccc(Br)cc3C(=O)O)cc2C1=O` (stereo not drawn), the cell number change turned out to be 14.6%. Further, under setting [1], the AC50 is 29.1 µM [rising, single point].

Take `O=C(Nc1ccc(C(=O)O)cc1)/C(=C\C=C\c1ccccc1)NC(=O)c1cccc(Br)c1`: the cell number change is -20.7%. The AC50 (measured here: cell number channel AC50, cells fed with added oleic acid) is 2.91 µM [rising, partial curve, poor fit].

As for `CCOc1cc(/C=C2\C(=O)N(c3cccc(C(=O)O)c3)N=C2C(F)(F)F)ccc1OCC(=O)Nc1ccccc1OC`, the cell number change was -20.8%. For the same molecule, the AC50 under setting [1] was 29.1 µM [falling, single point].

Take `CCCOc1ccc(C2C(C(=O)c3cc4ccccc4o3)=C(O)C(=O)N2c2cc(C)on2)cc1` (stereo not drawn): the cell number change is -1.49%. Besides, the AC50 under setting [1] was 20.6 µM [rising, single point].
